Data set [1] relates to A549 (ATCC CCL-185) lung epithelial cell line. Nature of the data set: Cytotoxicity assay in monolayer by resazurin colorimetric method. The class given is cell-based, human. The conditions noted are these: for Calculated SI H. capsulatum: ratio IC50 / MIC90.
Data set [2] relates to MRC-5 (ATCC CCL-171) pulmonary fibroblast cell line. The conditions noted are these: for Calculated SI H. capsulatum / Calculated SI T. mentagrophytes: ratio IC50 / MIC90.

On to `COc1ccc(C(=O)/C=C/c2ccc([N+](=O)[O-])o2)cc1` [Compound 12], for which the figures for the “Calculated SI H. capsulatum” value in data set [1] and in data set [2] were 32.01 and 29.19, respectively. The “Calculated SI T. mentagrophytes” value in data set [2] was 116.92.
In the case of `O=C(NCCc1ccccn1)c1ccc([N+](=O)[O-])o1` [Compound 3, 5-nitro-N-(2-(pyridin-2-yl)ethyl)furan-2-carboxamide], the “Calculated SI H. capsulatum” value in data set [1] is 59.28. For the same compound, in data set [2], the “Calculated SI H. capsulatum” value is listed as 64.10 and the “Calculated SI T. mentagrophytes” value is reported as 4.00.
The matching figures for `O=C(NCCc1c[nH]c2ccccc12)c1ccc([N+](=O)[O-])o1` [Compound 7]: 8.75, 72.69 and 0.56.
For `CSc1ccc(C(=O)/C=C/c2ccc([N+](=O)[O-])o2)cc1` [Compound 13] the same measures were 0.14, 0.03 and 4.23.
The matching figures for `O=C(/C=C/c1ccc([N+](=O)[O-])o1)c1ccc(Br)cc1` [Compound 11]: 25.50, 130.33 and 8.02.
With `O=C(/C=C/c1ccc([N+](=O)[O-])o1)c1ccc(-n2ccnc2)cc1` [Compound 14], the “Calculated SI C. glabrata” value in data set [1] (A549 IC50 versus MIC90 of C. glabrata) is 4.28; in data set [2] (MRC-5 IC50 versus MIC90 of C. glabrata) it was 3.43. For the same compound, the “Calculated SI H. capsulatum” value was 4.28 in data set [1] and 3.43 in data set [2]. In addition, the “Calculated SI T. mentagrophytes” value in data set [2] is listed as 13.74.
Take `O=C(/C=C/c1ccc([N+](=O)[O-])o1)c1ccc(F)cc1` [Compound 9]: the “Calculated SI H. capsulatum” value is recorded as 6.00 in data set [1] and 12.11 in data set [2]. The “Calculated SI T. mentagrophytes” value in data set [2] is listed as 24.22.
For the compound `O=C(NCc1ccccn1)c1ccc([N+](=O)[O-])o1` [Compound 4], the “Calculated SI P. brasiliensis” value in data set [1] (A549 IC50 versus MIC90 of P. brasiliensis) was 7.56; in data set [2] (MRC-5 IC50 versus MIC90 of P. brasiliensis), 34.66. Moreover, the “Calculated SI H. capsulatum” value in data set [1] is 7.56; in data set [2] it was 34.66. Also, the “Calculated SI T. mentagrophytes” value in data set [2] was 4.32.
`CN(C)CCCNC(=O)c1ccc([N+](=O)[O-])o1` [Compound 6]: the “Calculated SI H. capsulatum” value in data set [1] is on record as 0.05. In addition, in data set [2], the “Calculated SI H. capsulatum” value is 0.06 and the “Calculated SI T. mentagrophytes” value was 0.06.
`O=C(NCCCc1ccccc1)c1ccc([N+](=O)[O-])o1` [Compound 5]: the figures for the “Calculated SI H. capsulatum” value in data set [1] and in data set [2] were 15.44 and 20.38, respectively. For the same compound, the “Calculated SI T. mentagrophytes” value in data set [2] was 1.27.
The matching figures for `O=C(/C=C/c1ccc([N+](=O)[O-])o1)c1ccccc1` [Compound 8]: 3.44, 0.42 and 6.79.
For `CS(=O)(=O)c1ccc(C(=O)/C=C/c2ccc([N+](=O)[O-])o2)cc1` [Compound 15, (E)-1-(4-(methylsulfonyl)phenyl)-3-(5-nitrofuran-2-yl)prop-2-en-1-one] the same measures were 0.13, 0.04 and 1.47.
For `O=C(/C=C/c1ccc([N+](=O)[O-])o1)c1ccc(Cl)cc1Cl` [Compound 16, (E)-1-(2,4-dichlorophenyl)-3-(5-nitrofuran-2-yl)prop-2-en-1-one] the same measures were 0.56, 0.47 and 3.83.
Regarding `O=C(/C=C/c1ccc([N+](=O)[O-])o1)c1ccc(Cl)cc1` [Compound 10], the “Calculated SI H. capsulatum” value in data set [1] was 4.95. Also, in data set [2], the “Calculated SI H. capsulatum” value is 27.58 and the “Calculated SI T. mentagrophytes” value is 55.23.
For `O=C(/C=C/c1ccccc1)OCc1ccc([N+](=O)[O-])o1` [Compound 1] the same measures were 1.00, 0.96 and 15.41.
For `O=C(NCCCn1ccnc1)c1ccc([N+](=O)[O-])o1` [Compound 2, N-(3-(1H-imidazol-1-yl)propyl)-5-nitrofuran-2-carboxamide] the same measures were 0.19, 0.36 and 0.72.
